Drawing on article PMC12116067, this text covers binding for one molecule.

Sequences of proteins named here, by UniProt entry; tags and fusion partners are left off.
UniProt P03107: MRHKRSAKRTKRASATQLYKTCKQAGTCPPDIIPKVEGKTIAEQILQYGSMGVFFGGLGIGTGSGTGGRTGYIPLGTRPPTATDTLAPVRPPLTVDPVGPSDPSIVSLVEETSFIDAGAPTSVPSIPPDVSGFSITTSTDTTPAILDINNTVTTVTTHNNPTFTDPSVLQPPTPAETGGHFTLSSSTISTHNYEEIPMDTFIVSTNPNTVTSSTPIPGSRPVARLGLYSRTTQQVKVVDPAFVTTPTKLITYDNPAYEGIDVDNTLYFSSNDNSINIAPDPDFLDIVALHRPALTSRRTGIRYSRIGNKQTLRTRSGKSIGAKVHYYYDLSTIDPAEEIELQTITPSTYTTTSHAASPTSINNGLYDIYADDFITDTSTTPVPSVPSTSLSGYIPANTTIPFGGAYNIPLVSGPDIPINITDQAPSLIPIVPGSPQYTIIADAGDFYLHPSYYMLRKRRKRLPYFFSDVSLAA

This test has as its target HPV16 L2 protein fused with five carboxy terminus HA tags, in HPV16 pseudovirus (HPV16) (UniProt P03107). Briefly: co-IP.

No constants are given. Whether binding was seen depends on the method and setting. In cells and extracts the contact can be indirect.

B1: Sec24a (protein, UniProt O95486 1-1093)
chain: MSQPGIPASGGAPASLQAQNGAALASGSPYTNGPVQNALLSSQESVSQGYNFQLPGSYPHPIPAKTLNPVSGQSNYGGSQGSGQTLNRPPVASNPVTPSLHSGPAPRMPLPASQNPATTPMPSSSFLPEANLPPPLNWQYNYPSTASQTNHCPRASSQPTVSGNTSLTTNHQYVSSGYPSLQNSFIKSGPSVPPLVNPPLPTTFQPGAPHGPPPAGGPPPVRALTPLTSSYRDVPQPLFNSAVNQEGITSNTNNGSMVVHSSYDEIEGGGLLATPQLTNKNPKMSRSVGYSYPSLPPGYQNTTPPGATGVPPSSLNYPSGPQAFTQTPLGANHLTTSMSGLSLQPEGLRVVNLLQERNMLPSTPLKPPVPNLHEDIQKLNCNPELFRCTLTSIPQTQALLNKAKLPLGLLLHPFKDLVQLPVVTSSTIVRCRSCRTYINPFVSFLDQRRWKCNLCYRVNDVPEEFLYNPLTRVYGEPHRRPEVQNATIEFMAPSEYMLRPPQPPVYLFVFDVSHNAVETGYLNSVCQSLLDNLDLLPGNTRTKIGFITFDSTIHFYGLQESLSQPQMLIVSDIEDVFIPMPENLLVNLNESKELVQDLLKTLPQMFTKTLETQSALGPALQAAFKLMSPTGGRMSVFQTQLPTLGVGALKPREEPNHRSSAKDIHMTPSTDFYKKLALDCSGQQVAVDLFLLSGQYSDLASLGCISRYSAGSVYYYPSYHHQHNPVQVQKLQKELQRYLTRKIGFEAVMRIRCTKGLSIHTFHGNFFVRSTDLLSLPNVNPDAGYAVQMSVEESLTDTQLVSFQSALLYTSSKGERRIRVHTLCLPVVSTLNDVFLGADVQAISGLLANMAVDRSMTASLSDARDALVNAVIDSLSAYRSSVLSNQQPGLMVPFSLRLFPLFVLALLKQKSFQTGTNARLDERIFAMCQVKNQPLVYLMLTTHPSLYRVDNLSDEGALNISDRTIPQPPILQLSVEKLSRDGAFLMDAGSVLMLWVGKNCTQNFLSQVLGVQNYASIPQPMTDLPELDTPESARIIAFISWLREQRPFFPILYVIRDESPMKANFLQNMIEDRTESALSYYEFLLHIQQQVNK
As for B1, the binding result was “no binding”.
